Test results reported in PubChem BioAssay AID1439 (NMMLSC, 2008).
Among all 220,000 compounds or so, about 770 (0.35%) were called active. Inconclusive means that the source gave no clear call. Such entries were picked first, then a sample of the others. No stated cut-off is given here; in the data, active means binding response below about 49% or above about 150%; inconclusive means no clear call, values can overlap the other calls; inactive means in between.

The chains behind the UniProt entries cited, without tags or fusion partners.
UniProt P09471, whole entry, looked up: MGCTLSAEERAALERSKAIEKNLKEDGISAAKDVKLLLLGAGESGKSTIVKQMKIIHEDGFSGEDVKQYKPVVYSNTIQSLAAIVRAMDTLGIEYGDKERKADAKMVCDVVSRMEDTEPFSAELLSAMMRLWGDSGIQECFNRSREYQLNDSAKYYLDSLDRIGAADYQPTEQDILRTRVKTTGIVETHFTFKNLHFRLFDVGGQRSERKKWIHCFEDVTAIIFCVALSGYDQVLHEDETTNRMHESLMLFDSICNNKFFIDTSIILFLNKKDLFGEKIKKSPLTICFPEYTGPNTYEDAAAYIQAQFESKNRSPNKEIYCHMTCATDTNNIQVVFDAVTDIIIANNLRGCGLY

biological target: Guanine nucleotide-binding protein G(o) subunit alpha (Homo sapiens) (UniProt P09471); assay: RGS7-Galphao binding modulators, primary screen, biochemical, multiplexed bead flow cytometry (AID 1439); details: at 10 µM, actives lie on both sides;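 further: fluorescent Galphao held in activated GDP-AlF4 state binding bead-coupled RGS7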

Structure (SMILES)	binding response (% of control)
CC1(C)OC(=O)C(=CNNc2c(Cl)cc(Cl)cc2Cl)C(=O)O1	inconclusive: -74.6%
Cc1ccc(/C=N/NC(=O)c2ccco2)cc1	inconclusive: 95.5%
CCc1ccc(OCC(=O)O/N=C(\N)c2cccnc2)cc1	inconclusive: 106%
CCc1ccc(NC(=O)C[n+]2cc(-c3ccc(C)cc3)n3c2CCC3)cc1	inconclusive: 87.3%
O=C(NC(=S)Nc1ccccc1N1CCCC1)c1cccs1	inconclusive: 207%
O=C(Cc1nc2ccccc2[nH]1)c1cccc([N+](=O)[O-])c1	inconclusive: 111%
O=C(O)CC1(CC(=O)Nc2ccc3c(c2)C(=O)OC3)CCCCC1	inconclusive: -309%
COC(=O)c1c(NC(NC(=O)c2ccccc2)(C(F)(F)F)C(F)(F)F)sc2c1CCN(C)C2	inactive: 102%
O=C(CSc1nnnn1-c1ccc(O)cc1)N1N=C(c2ccc3ccccc3c2)CC1c1ccccc1 (configuration not stated)	inconclusive: 110%
COCCNC(=O)/C(C#N)=C/c1cccc(OCc2ccccc2)c1	inconclusive: 99.2%
c1ccc(-c2csc3ncnc(NCc4ccccn4)c23)cc1	inconclusive: 37.1%
CCOc1ccc(NC(=O)NNC(=O)c2ccc(CC)s2)cc1	inactive: 98.6%
Cc1ccc(NC(=S)N(CCCN2CCC(C)CC2)Cc2ccco2)cc1	inconclusive: 116%
O=C(/C=C/c1ccc(Cl)cc1)Nc1nccs1	inconclusive: 100%
CN(CCC#N)C(=O)CC(Cc1ccccc1)C1CCOC(C)(C)C1 (configuration not stated)	inconclusive: 55.8%
Cc1cc2ncn(CC3CC3(Cl)Cl)c2cc1C (configuration not stated)	inconclusive: 96.6%
Cc1ccc(-n2c(C)nn(Cc3ccc([N+](=O)[O-])cc3)c2=O)cc1	inconclusive: 111%
CCc1nnc(NC(=O)CSc2nc3ccc(OC)cc3[nH]2)s1	inactive: 104%
Cc1ccc(OCc2nnc(SCCN3CCOCC3)n2C)cc1	inactive: 87.3%
O=C(c1ccco1)N1CCC(N2CCN(c3ccccc3)CC2)CC1	inconclusive: 101%
CC1(C)CC2CC(C)(CN2/C=N/c2sc3c(c2C#N)CC(C)(C)NC3(C)C)C1 (configuration not stated)	inconclusive: 93.3%
O=C1CC(C(=O)Nc2cc(Cl)ccc2Cl)n2ncnc2N1 (configuration not stated)	inactive: 98.9%
Cc1ccc(C(=O)CSc2ccccn2)cc1	inactive: 147%
CCn1c(P(C)(=O)O)nc2cc(NC(=O)c3ccccc3Cl)ccc21	inactive: 97.7%

Structure (SMILES)	binding response (% of control)
COc1ccc(Oc2ccc(S(=O)(=O)N3CCCCC3)cc2S(=O)(=O)N2CCCCC2)cc1	inconclusive: 96%
CCOc1ccc(NC(=O)CN2C(=O)/C(=C3\SC(=S)N(C4CCS(=O)(=O)C4)C3=O)c3ccccc32)cc1 (configuration not stated)	inconclusive: 42.3%
Brc1ccc(-c2noc(-c3ccccc3)n2)o1	inconclusive: 100%
CCc1ccc(/C=N/NC(=O)Cc2cccn2C)cc1	inconclusive: 71.5%
Cc1ccc(N2C(=O)C(Cc3ccc(O)cc3)NC2=S)cc1C (configuration not stated)	inactive: 102%
CCCOc1cccc(C2C(C(=O)c3cccs3)=C(O)C(=O)N2Cc2cccnc2)c1 (configuration not stated)	inconclusive: 55.4%
O=C(Nc1cc(S(=O)(=O)N2CCCCC2)ccc1N1CCOCC1)c1cc(=O)[nH]c2ccccc12	inconclusive: 97.6%
CCOC(=O)C1(Cc2ccccc2C)CCCN(C(=O)CCc2cccnc2)C1 (configuration not stated)	inactive: 107%
NC(=O)C12CCCC(Br)(CCC1)C2	inconclusive: 94.6%
CCCCSc1cc(=O)[nH]c(N)n1	inconclusive: 96.9%
COCCNS(=O)(=O)c1ccc2c(c1)C(=NO)c1cc(S(=O)(=O)NCCOC)ccc1-2	inconclusive: 102%
N=c1n(CC(=O)c2cccs2)c2ccccc2n1Cc1ccccc1	inconclusive: 102%
CN1c2ccsc2C(=O)/C(=C\Nc2cccc(C(F)(F)F)c2)S1(=O)=O	inconclusive: 62.5%
Cn1cc(P(=S)(N2CCOCC2)N2CCOCC2)cc1P(=S)(N1CCOCC1)N1CCOCC1	inconclusive: 109%
Nc1n[nH]c(N)c1N=Nc1ccc2c(c1)OCO2	inactive: 99.9%
Cc1ccc(C(=O)NCc2n[nH]c(=S)n2-c2ccccc2)cc1[N+](=O)[O-]	inactive: 99.3%
O=C(Nc1ccc2c(c1)CCC2)c1ccccc1Br	inconclusive: 89.7%
COc1cc(NC(=S)Nc2cccc(C)n2)cc(OC)c1OC	inconclusive: 85.8%
CCCn1nc(C(=O)OCC(=O)NC(C)c2ccccc2)c2ccccc2c1=O (configuration not stated)	inconclusive: 91.1%
CC(O)CNCCCCOc1ccc(OCc2ccccc2)cc1 (configuration not stated)	inconclusive: 113%
COc1ccccc1N1CCN(C(=O)CCc2c[nH]c3ccccc23)CC1	inconclusive: 109%
O=C(COC(=O)c1cccnc1Cl)c1ccc(OC(F)F)cc1	inactive: 102%
Cc1ccc(NC(=O)Nc2cc(-c3ccccc3)nn2C)cc1Cl	inconclusive: 112%

Structures above containing a CF3 group, in the order listed:
Structure (SMILES)	binding response (% of control)
COC(=O)c1c(NC(NC(=O)c2ccccc2)(C(F)(F)F)C(F)(F)F)sc2c1CCN(C)C2	inactive: 102%
CN1c2ccsc2C(=O)/C(=C\Nc2cccc(C(F)(F)F)c2)S1(=O)=O	inconclusive: 62.5%
